No constants are given. Whether binding was seen depends on the method and setting. In cells and extracts the contact can be indirect. Some binding calls cover weakened binding; strength is not graded here. Where a sequence is shown, tags or fusion partners need not be part of it.
T1: ^HABim1 (S. cerevisiae) (UniProt P40013)
T1 sequence: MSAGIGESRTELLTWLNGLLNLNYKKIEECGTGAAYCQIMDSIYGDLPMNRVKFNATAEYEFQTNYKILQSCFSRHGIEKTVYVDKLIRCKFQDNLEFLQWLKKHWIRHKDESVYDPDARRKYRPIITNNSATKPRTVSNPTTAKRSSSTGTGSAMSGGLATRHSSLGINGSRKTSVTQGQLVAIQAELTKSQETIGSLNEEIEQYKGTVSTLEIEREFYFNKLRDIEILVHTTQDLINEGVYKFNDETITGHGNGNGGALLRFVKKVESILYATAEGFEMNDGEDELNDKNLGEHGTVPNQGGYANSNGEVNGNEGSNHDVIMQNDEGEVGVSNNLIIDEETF

B1: Δ37-Kip2^13myc (domain or fragment, UniProt P28743 38-706)
chain: LTRNSIRSTSNSGSQSISASSTRSNSPLRSVSAKSDPFLHPGRIRIRRSDSINNNSRKNDTYTGSITVTIRPKPRSVGTSRDHVGLKSPRYSQPRSNSHHGSNTFVRDPWFITNDKTIVHEEIGEFKFDHVFASHCTNLEVYERTSKPMIDKLLMGFNATIFAYGMTGSGKTFTMSGNEQELGLIPLSVSYLFTNIMEQSMNGDKKFDVIISYLEIYNERIYDLLESGLEESGSRISTPSRLYMSKSNSNGLGVELKIRDDSQYGVKVIGLTERRCESSEELLRWIAVGDKSRKIGETDYNARSSRSHAIVLIRLTSTNVKNGTSRSSTLSLCDLAGSERATGQQERRKEGSFINKSLLALGTVISKLSADKMNSVGSNIPSPSASGSSSSSGNATNNGTSPSNHIPYRDSKLTRLLQPALSGDSIVTTICTVDTRNDAAAETMNTLRFASRAKNVALHVSKKSIISNGNNDGDKDRTIELLRRQLEEQRRMISELKNRSNIGEPLTKSSNESTYKDIKATGNDGDPNLALMRAENRVLKYKLENCEKLLDKDVVDLQDSEIMEIVEMLPFEVGTLLETKFQGLESQIRQYRKYTQKLEDKIMALEKSGHTAMSLTGCDGTEVIELQKMLERKDKMIEALQSAKRLRDRALKPLINTQQSPHPVVDNDK
B2: Δ70-Kip2^13myc (domain or fragment, UniProt P28743 71-706)
chain: KSDPFLHPGRIRIRRSDSINNNSRKNDTYTGSITVTIRPKPRSVGTSRDHVGLKSPRYSQPRSNSHHGSNTFVRDPWFITNDKTIVHEEIGEFKFDHVFASHCTNLEVYERTSKPMIDKLLMGFNATIFAYGMTGSGKTFTMSGNEQELGLIPLSVSYLFTNIMEQSMNGDKKFDVIISYLEIYNERIYDLLESGLEESGSRISTPSRLYMSKSNSNGLGVELKIRDDSQYGVKVIGLTERRCESSEELLRWIAVGDKSRKIGETDYNARSSRSHAIVLIRLTSTNVKNGTSRSSTLSLCDLAGSERATGQQERRKEGSFINKSLLALGTVISKLSADKMNSVGSNIPSPSASGSSSSSGNATNNGTSPSNHIPYRDSKLTRLLQPALSGDSIVTTICTVDTRNDAAAETMNTLRFASRAKNVALHVSKKSIISNGNNDGDKDRTIELLRRQLEEQRRMISELKNRSNIGEPLTKSSNESTYKDIKATGNDGDPNLALMRAENRVLKYKLENCEKLLDKDVVDLQDSEIMEIVEMLPFEVGTLLETKFQGLESQIRQYRKYTQKLEDKIMALEKSGHTAMSLTGCDGTEVIELQKMLERKDKMIEALQSAKRLRDRALKPLINTQQSPHPVVDNDK
B3: Kip2^13myc variant with the SNIP motif mutated to SNSS (protein, UniProt P28743 1-706)
chain: MIQKMSPSLRRPSTRSSSGSSNSSQSPSVRSTSSFSNLTRNSIRSTSNSGSQSISASSTRSNSPLRSVSAKSDPFLHPGRIRIRRSDSINNNSRKNDTYTGSITVTIRPKPRSVGTSRDHVGLKSPRYSQPRSNSHHGSNTFVRDPWFITNDKTIVHEEIGEFKFDHVFASHCTNLEVYERTSKPMIDKLLMGFNATIFAYGMTGSGKTFTMSGNEQELGLIPLSVSYLFTNIMEQSMNGDKKFDVIISYLEIYNERIYDLLESGLEESGSRISTPSRLYMSKSNSNGLGVELKIRDDSQYGVKVIGLTERRCESSEELLRWIAVGDKSRKIGETDYNARSSRSHAIVLIRLTSTNVKNGTSRSSTLSLCDLAGSERATGQQERRKEGSFINKSLLALGTVISKLSADKMNSVGSNIPSPSASGSSSSSGNATNNGTSPSNHIPYRDSKLTRLLQPALSGDSIVTTICTVDTRNDAAAETMNTLRFASRAKNVALHVSKKSIISNGNNDGDKDRTIELLRRQLEEQRRMISELKNRSNIGEPLTKSSNESTYKDIKATGNDGDPNLALMRAENRVLKYKLENCEKLLDKDVVDLQDSEIMEIVEMLPFEVGTLLETKFQGLESQIRQYRKYTQKLEDKIMALEKSGHTAMSLTGCDGTEVIELQKMLERKDKMIEALQSAKRLRDRALKPLINTQQSPHPVVDNDK

Molecular target: T1, ^HABim1 (S. cerevisiae)
Test: co-IP; ^HABim1 precipitated overnight with anti-HA antibody and protein-A-Sepharose from extracts of kip2Δ or kip2Δ bik1Δ yeast cells expressing plasmid-borne Kip2^13myc variants; 50 mM Tris pH 7.6, 150 mM NaCl, 1 mM MgCl2, 0.1% NP-40; blots with anti-HA and anti-Myc

Binder	binding
B1	binds weakly
B2	binds weakly
B3	no binding

From PMC4657329
